Measured values from PubChem BioAssay AID504834 (National Center for Advancing Translational Sciences (NCATS), 2011).
Hit rate of the full screen: of about 320,000 compounds, about 22,000 (6.9%) were called active. Inconclusive means that the source gave no clear call. Such entries were picked first, then a sample of the others. Calls come from the whole dose curve; as a rule, active = well fitted inhibition curve with a large enough effect; inconclusive = small, poorly fitted or top-dose-only effect, or another doubt; inactive = no such curve, though single readings can be large or run the other way. Potencies of inconclusive entries are doubtful fits and often do not repeat. Where a structure was tested more than once in an assay, its records may differ in their call.
% is set by controls: 0 for no effect and ±100 for the full control effect; potency is the fitted concentration of half-maximal effect.

Assay: Primary qHTS for delayed death inhibitors of the malarial parasite plastid, 96 hour incubation
Details: P. falciparum luciferase reporter growth; series mostly up to 28.7 µM; activity change, negative = inhibition: at the top concentration
How it was run: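 Two-generation exposure (96 h) targets delayed-death phenotype. Reporter parasites carrying integrated firefly luciferase, in red cells at 2% hematocrit and 0.05% parasitemia final, kept at 37 C, 5% CO2; luminescence loss indicates inhibition.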
For `Cc1nc2ccc(NC(=O)[C@@H](NC(=O)c3c(F)cccc3F)C(C)C)cc2s1`, the Potency was inconclusive: 1.47 µM [inhibitor, full curve, poor fit].
With `CC(CCc1ccccc1)NC(=O)c1ccccc1F` (centres undefined) the “activity change, negative = inhibition” value was inactive: -7.72%.
In the case of `COc1ccc(-c2cn3c(C)c(C(=O)Nc4ccncc4)sc3n2)cc1`, the Potency is reported as inconclusive: 3.7 µM [inhibitor, partial curve, poor fit].
In the case of `COc1ccc(S(=O)(=O)N2CCCC2CNC(=O)C(=O)NCc2ccccc2)cc1` (centres undefined), the Potency is reported as inconclusive: 11.7 µM [inhibitor, single point].
For `O=C(NN=C1C2CC3CC1CC(Cl)(C3)C2)c1ccccn1`, the Potency was inconclusive: 20.8 µM [inhibitor, single point].
For `Cc1ccc(CSc2nnc([C@@H]3CCCN3C(=O)OC(C)(C)C)o2)cc1`, the Potency was inconclusive: 20.8 µM [inhibitor, single point].
With `Cc1ccc(OCCC(=O)OCC(=O)Nc2c(C)nn(-c3ccccc3)c2C)cc1` the “activity change, negative = inhibition” value was inactive: 32.2%.
For `Cc1cc(NC(=S)N(CCCN2CCN(C)CC2)Cc2ccco2)ccc1Cl`, the “activity change, negative = inhibition” value was inactive: 5.67%.
In the case of `CO/N=C(\c1ccccc1)c1cccnc1`, the Potency is reported as inconclusive: 18.5 µM [inhibitor, single point].
For `O=C(Nc1cc2c(cc1C(=O)O)OCCCO2)c1ccc(F)cc1F`, the “activity change, negative = inhibition” value was inactive: 83%.
With `Cn1c(SCC(=O)Nc2cccc(F)c2)nc2c(c1=O)SCC2` the Potency was active: 2.62 µM.
In the case of `CC(C)c1ccc(S(=O)(=O)N2CCN(C(=O)n3ccnc3)CC2)cc1`, the Potency is reported as active: 5.22 µM.
With `COc1cc(C(=O)NCC(=O)OCCN2C(=O)c3ccccc3C2=O)cc(OC)c1OC` the “activity change, negative = inhibition” value was inactive: 44.2%.
For `CCOC(=O)c1ccc(NC(=O)C2CCCN(S(=O)(=O)c3ccc(F)cc3)C2)cc1` (centres undefined), the Potency was active: 8.28 µM.
With `O=C(CCN1CCOCC1)NCC(=O)Nc1ccc(Br)cc1C(=O)c1ccccc1` the Potency was active: 13.1 µM.
For `COC(=O)C1C(c2ccccc2)C(C(=O)N2CCOCC2)C1c1ccccc1` (centres undefined), the Potency was inconclusive: 1.31 µM [inhibitor, single point].
In the case of `CCOC(=O)C1(CCOc2ccccc2)CCN(Cc2ccc(-n3cccn3)cc2)CC1`, the Potency is reported as inconclusive: 11.7 µM [inhibitor, single point].
In the case of `CC(=O)c1cc2c(cc1NC(=O)CSc1nc3ccccc3[nH]1)OCO2`, the “activity change, negative = inhibition” value is reported as inactive: -20%.
For `COc1ccc(C(=O)C2CCCN(Cc3ccc4nonc4c3)C2)c(OC)c1` (centres undefined), the Potency was inconclusive: 11.7 µM [inhibitor, single point].
With `CCC1(c2ccccc2)NC(=O)N(CC(=O)Nc2cc(Cl)ccc2N2CCN(C)CC2)C1=O` (centres undefined) the Potency was inconclusive: 11.7 µM [inhibitor, single point].
For `CN(C)C(=O)Oc1ccc(OCc2nc3ccccc3[nH]2)cc1`, the “activity change, negative = inhibition” value was inactive: 120%.
For `COc1cc(NC(=O)COC(=O)CSc2cc(C)ccc2C)c(C)cc1[N+](=O)[O-]`, the “activity change, negative = inhibition” value was inactive: -21.7%.
For `CCc1cc(CNC(=O)c2ccc3nc(Cc4ccc(OC)c(OC)c4)oc3c2)on1`, the “activity change, negative = inhibition” value was inactive: 18.8%.
With `Cc1ccc(S(=O)(=O)N2CCCCC2)cc1NC(=O)c1ccc2ccccc2n1` the “activity change, negative = inhibition” value was inactive: 0%.
In the case of `O=c1c2ccccc2c(C=Nc2ccccc2O)c(O)n1-c1nccs1`, the Potency is reported as inconclusive: 0.828 µM [inhibitor, partial curve, poor fit].
With `CC(=O)OCCC(NS(=O)(=O)OCC(Cl)(Cl)Cl)c1ccccc1` (centres undefined) the “activity change, negative = inhibition” value was inactive: 86.6%.
In the case of `O=C(c1cc(COc2ccc(F)cc2Cl)on1)N1CCN(C2CCCC2)CC1`, the Potency is reported as inconclusive: 6.57 µM [inhibitor, partial curve, poor fit].
For `O=C(CSc1ncccc1C(=O)O)Nc1ccc2c(c1)OCCO2`, the “activity change, negative = inhibition” value was inactive: 54.7%.
With `COc1ccccc1NC(=O)CSc1nc(SC)ns1` the “activity change, negative = inhibition” value was inactive: 6.21%.
In the case of `Cc1nn(C(C)C(=O)NC2CC2)c(=O)c2nn(-c3ccccc3)c(C)c12` (centres undefined), the Potency is reported as inconclusive: 18.5 µM [inhibitor, single point].
With `COC(=O)CN(c1ccc2c(c1)OCO2)S(=O)(=O)c1c(C)[nH]c(=O)[nH]c1=O` the Potency was inconclusive: 0.928 µM [inhibitor, full curve, poor fit].
For `CC(=O)Nc1nc(Cn2nnc(-c3ccc4c(c3)OCO4)n2)nc(N(C)C)n1`, the “activity change, negative = inhibition” value was inactive: -12.5%.
In the case of `COC(=O)CN(C#N)c1nc(C)cc(C)n1`, the Potency is reported as inconclusive: 18.5 µM [inhibitor, single point].
In the case of `COC(=O)Cc1ccc(NC(=O)c2ccccc2Cl)cc1`, the Potency is reported as inconclusive: 18.5 µM [inhibitor, single point].
With `CCCN1C(=O)c2[nH]nc(-c3cc(Cl)c(C)cc3O)c2C1c1ccc(O)c(OC)c1` (centres undefined) the Potency was active: 10.4 µM.
In the case of `CC(=O)NC1=NN(C(C)=O)C(c2ccc(C(C)C)cc2)S1` (centres undefined), the “activity change, negative = inhibition” value is reported as inactive: -27.5%.
In the case of `CC(C)c1ccccc1NC(=O)Nc1ccc2c(c1)OCO2`, the Potency is reported as inconclusive: 10.4 µM [inhibitor, single point].
For `COc1ccc(C)cc1S(=O)(=O)NC(C)C(=O)Nc1ccc2c(c1)OCO2` (centres undefined), the Potency was inconclusive: 4.65 µM [inhibitor, partial curve].
In the case of `OC1CCCN(CC(O)COC(c2ccccc2)c2ccccc2)C1` (centres undefined), the Potency is reported as inconclusive: 9.28 µM [inhibitor, single point].
With `O=C(c1cc2sccc2n1Cc1ccc(F)cc1)N1CCCc2ccccc21` the Potency was inconclusive: 0.294 µM [inhibitor, full curve, poor fit].
For `CCS(=O)(=O)N1CCCC(C(=O)NCc2ccccc2Cl)C1` (centres undefined), the Potency was inconclusive: 8.28 µM [inhibitor, partial curve, poor fit].
For `CC12CC[C@H]3[C@@H](CCC4(O)C[C@H](O)CCC34/C=N/NC(=O)c3ccc(O)cc3)C1(O)CCC2C1=CC(=O)OC1` (some centres undefined), the “activity change, negative = inhibition” value was inactive: 18.1%.
In the case of `CCCCCC1CCC(C(=O)NCCN2CCOCC2)CC1` (centres undefined), the Potency is reported as inconclusive: 2.33 µM [inhibitor, single point].
In the case of `Cn1c(Cc2c[nH]c3ccccc23)n[nH]c1=S`, the “activity change, negative = inhibition” value is reported as inactive: 42.3%.
For `COc1ccc(-c2cc(CNS(=O)(=O)c3ccccc3)on2)cc1`, the “activity change, negative = inhibition” value was inactive: 36.5%.
With `Cc1ccc(C(=O)CSc2nnc(COc3cccc4cccnc34)o2)cc1` the Potency was active: 3.29 µM.
For `COc1ccccc1N(CC(=O)NCC1CCCO1)C(=O)CCC(=O)Nc1nccs1` (centres undefined), the Potency was inconclusive: 2.33 µM [inhibitor, partial curve, poor fit].
With `CNC(=O)/C(=C/c1ccc2c(c1)OCO2)NC(=O)c1ccc(Br)cc1` the Potency was inconclusive: 18.5 µM [inhibitor, single point].
With `CCC(C)(C)n1nnnc1CN1CCN(C(c2ccccc2)c2ccccc2)CC1` the “activity change, negative = inhibition” value was inactive: 82.4%.
With `C/C(=N\NC(=O)c1ccco1)c1ccc(-c2ccccc2)cc1` the Potency was inconclusive: 10.4 µM [inhibitor, single point].
In the case of `O=C(CN1CCN(C/C=C/c2ccccc2)CC1)Nc1cc([N+](=O)[O-])ccc1Cl`, the Potency is reported as inconclusive: 14.7 µM [inhibitor, partial curve].
With `CCc1nnc(NC(=O)CSc2nnc(-c3ccc(S(=O)(=O)N4CCCC4)cc3)n2CC)s1` the Potency was inconclusive: 10.4 µM [inhibitor, single point].
In the case of `Cc1cc(N/N=C/c2ccccc2Br)nc2ccccc12`, the “activity change, negative = inhibition” value is reported as inactive: -88.4%.
For `COc1ccc2c(c1)CCc1c(C(=O)NCCCn3ccnc3)noc1-2`, the “activity change, negative = inhibition” value was inactive: 91.2%.
For `Cc1cscc1NC(=O)/C=C/C(=O)O`, the Potency was inconclusive: 4.15 µM [inhibitor, partial curve, poor fit].
In the case of `Cc1ccc(SCCNC(=O)/C=C/c2cccc([N+](=O)[O-])c2)cc1`, the “activity change, negative = inhibition” value is reported as inactive: 30.3%.
In the case of `COc1cc2c(cc1OC)[C@@H]1O[C@](c3ccsc3)(C2)Oc2cc(C)n(-c3ccccc3)c(=O)c21`, the Potency is reported as active: 1.51 µM.
With `CCOc1ccc(OCC)c(NC(=O)CCNS(=O)(=O)c2cc(Br)cnc2N)c1` the Potency was inconclusive: 0.738 µM [inhibitor, partial curve, poor fit].
With `O=C(CN(Cc1ccco1)C(=O)c1ccccc1F)Nc1ccccc1C(F)(F)F` the Potency was inconclusive: 9.28 µM [inhibitor, partial curve].
For `CCN1C(=O)/C(=C/N2CC(C)CC(C)C2)SC1=S` (centres undefined), the “activity change, negative = inhibition” value was inactive: -4.51%.
For `O=C(N1CCN(c2cccc(Cl)c2)CC1)C1(c2cccs2)CCOCC1`, the Potency was inconclusive: 18.5 µM [inhibitor, single point].
With `Cc1cc(C(=O)CCl)c(C)n1-c1c(C)n(C)n(-c2ccccc2)c1=O` the Potency was active: 6.57 µM.
For `CCOC(=O)/C(C#N)=C/c1cccc(F)c1`, the Potency was inconclusive: 4.65 µM [inhibitor, partial curve, poor fit].
In the case of `COc1ccc2nc(NC(=O)CN(c3ccc(C)cc3)S(=O)(=O)c3c(C)nn(C)c3C)sc2c1`, the Potency is reported as active: 2.62 µM.
In the case of `O=C(Cn1nc(Cc2cccnc2)c2ccccc2c1=O)Nc1cccnc1Cl`, the “activity change, negative = inhibition” value is reported as inactive: -76.4%.
With `c1ccc2c(c1)OCC(C1=NCCN1)O2` (centres undefined) the Potency was active: 4.78 µM.
In the case of `COc1ccc(C(=O)NCC2(c3ccccc3)CCOCC2)cc1[N+](=O)[O-]`, the Potency is reported as inconclusive: 10.4 µM [inhibitor, single point].
In the case of `CCCCNC(=O)c1cc2nc(-c3ccccc3)cc(C(F)(F)F)n2n1`, the Potency is reported as inconclusive: 3.29 µM [inhibitor, single point].
For `COc1ccc(C(=O)N/N=C(\C)CC(=O)Nc2ccc3ccccc3c2)c(OC)c1`, the Potency was inconclusive: 7.38 µM [inhibitor, partial curve, poor fit].
In the case of `O=C(O)CCc1nn2c3ccccc3n(Cc3ccccc3F)c2nc1=O`, the “activity change, negative = inhibition” value is reported as inactive: 0%.
With `Cn1nnc(NC(=S)NC(=O)c2cccc3ccccc23)n1` the Potency was active: 13.1 µM.
For `CC1Cc2ccccc2N1C(=S)Nc1cccc(S(=O)(=O)N(C)C)c1` (centres undefined), the “activity change, negative = inhibition” value was inactive: 11.3%.
For `Cc1ccc(Nc2nc(-c3cccnc3)cs2)cc1C`, the Potency was inconclusive: 18.5 µM [inhibitor, single point].
In the case of `Cc1ccccc1N1CC(O)(c2cccs2)[N+]2=C1CCCC2` (centres undefined), the “activity change, negative = inhibition” value is reported as inactive: -13.6%.
